Data set [1] is described as follows: Example 2: soak impregnation, uptake and dimensional swelling of wood pieces. The note with it: for Uptake: Pinus ponderosa 38.6x38.6x72 mm submerged two to four days; for Radial Swelling / Tangential Swelling / Volumetric Swelling: after soak and two to four days in sealed containers; for soaking time to achieve the uptakes of Table 1: submerged wood pieces. Set-up: species or system Pinus ponderosa.

A short description of data set [2]: Example 1: dip impregnation of wood and solvent loss by evaporation (odour). Set-up: species or system Pinus radiata.

With `O` [Water, water, reference compound], in data set [1], the Uptake worked out at 147 L/m^3, the “Radial Swelling” value is listed as 2.6%, the “Tangential Swelling” value is on record as 3.3% and the “Volumetric Swelling” value turned out to be 6.0%. The “soaking time to achieve the uptakes of Table 1” value (shortened to “soaking time”) in data set [1] is recorded as “within two days”.

For the compound `CCOC(C)=O` [ethyl ethanoate], in data set [1], the Uptake is recorded as 130 L/m^3, the “Radial Swelling” value was found to be 0.8%, the “Tangential Swelling” value amounted to 3.7% and the “Volumetric Swelling” value came out at 4.5%. The “soaking time” value in data set [1] was “within two days”.

Consider `CC(=O)OCCC(C)C` [iso-pentyl ethanoate], for which, in data set [1], the Uptake was 115 L/m^3, the “Radial Swelling” value was 0.3%, the “Tangential Swelling” value is 0.5% and the “Volumetric Swelling” value is on record as 0.8%. Besides, in data set [1], the “soaking time” value is “four days”.

`CCCCOC(C)=O` [n-butyl ethanoate]: in data set [1], the Uptake is 130 L/m^3, the “Radial Swelling” value is reported as 0.2%, the “Tangential Swelling” value was 0.7% and the “Volumetric Swelling” value is given as 0.9%.

Turning to `CCCOC(C)=O` [n-propyl ethanoate], in data set [1], the Uptake is given as 128 L/m^3, the “Radial Swelling” value amounted to 0.5%, the “Tangential Swelling” value turned out to be 0.9% and the “Volumetric Swelling” value was determined as 1.4%. Also, the “soaking time” value in data set [1] is given as “within two days”. The compound also had an Uptake in data set [2] (Pinus radiata 90x45x360 mm dipped for two minutes, average of two pieces) of 36 L/m^3. The compound also gave an average uptake in data set [2] (Pinus radiata dipped for two minutes) of 54 g. Also, the “odour of solvent in wood” value in data set [2] (after a further 24 hours exposure) was “no odour”. The “odour of solvent in wood” value in data set [2] (after two days of evaporation in sheltered outside environment) was “faint or barely perceptible odour”.

The values above are taken from patent publication US8927063B2, “Compositions for the treatment of timber and other wood substrates” (TimTechChem International Limited, priority 2008, dated 2015).
